This is one part of the list.
B1: il10ra_site1_normal_mot_HHH_b2_07521_000000141_0001_20_37_H_._HHH_b1_05590_0001_0000200020_0000001_1_af2pred_0001 (protein)
chain: SSSSSSEHVELSIRFAKFLLEEGDPEAAKIIIKAAVEIAEKDGDEELLEEARELLEEIESSSSSS
B2: il10ra_site1_sap_16_mot_HHH_b2_06497_000000202_0001_1_20_H_._HHH_b1_03926_0001_0000200018_0000001_0_0001_af2pred_0001 (protein)
chain: SSSSSEEELEELHELVRELLEKGDPEKAIEVLARLVRLAIELGDEEALERAYELARRAKGSSSSS
B3: il10ra_site1_normal_mot_HHH_b2_00730_000000084_0001_1_16_H_._HHH_b1_06912_0001_0000200009_0000001_0 (protein)
chain: SSSSSSYLELALRFIEALLESGDPEAARLLLKAAEEIARREGDEEVKEELERLKEEIEERSSSSS
B4: il10ra_site1_normal_mot_HHH_b2_00475_000000107_0001_44_57_H_._HHH_b1_06566_af2_0001_0000500037_0000001_0_af2pred_0001 (protein)
chain: SSSSSSEVAELLLEALELLAEGNPEEAEEVAREAEELARELGDEELLRAVEILKRFIELASSSSS
B5: il10ra_site1_normal_mot_HHH_b2_08144_af2_000000046_0001_38_52_H_._HHH_b2_00248_af2_0001_0000300023_0000001_0_af2pred_dldesign_0_af2pred (protein)
chain: SSSSSSNPTEKTYELIRKASLLEDKEEREKLLEEAEKLAKELNDKTALYTIDYLKSLLSSSSSSS
B6: il10ra_site1_normal_mot_HHH_b1_02062_000000185_0001_1_20_H_._HHH_b1_06879_af2_0001_0000300019_0000002_0 (protein)
chain: SSSSDEEFRRVYELSREASELDSDGDEEEAEEVLREAQELAEELNNLLLRFQIEFLLRLLSSSSS
B7: il10ra_site1_sap_13_mot_HHH_b1_05860_000000142_0001_1_19_H_._HHH_b1_05334_0001_0000200015_0000001_0_0001_af2pred_0001 (protein)
chain: SSSSSDEELVARAILRLLKSAVKAGDEERARRLVRMALEIVEKLGDEEILEALEKILEELRSSSS
B8: il10ra_site1_normal_mot_812af5c65f29141b25d3ed263bec1fb2_0001_1_000000083_0001_36_50_H_._HHH_b2_06063_0001_0000200012_0000002_0_af2pred_0001 (protein)
chain: SSSSSDEELREEVEELLEKAKEIDDPREAAEVLLRAAELAWELGDPELMELVIEVARKLKSSSSS
B9: il10ra_site1_sap_28_mot_HHH_b1_01779_000000096_0001_43_57_H_._HHH_b2_04259_0002_0000600031_0000001_0_0001 (protein)
chain: SSSSSNTERAVRRLFKAIEEIDDERYLRLALKFIKALAEAANDEEAQKLVEELEELLRERSSSSS
B10: il10ra_site1_normal_mot_HHH_b1_00682_000000211_0001_1_20_H_._HHH_b2_01840_0001_0000100011_0000002_0_af2pred_0001 (protein)
chain: SSSSDVEERVEELLEQARELREKGNPEEAFKALKEALELASEVNDPELQRLVLEVAQELFSSSSS
B11: il10ra_site1_normal_mot_HHH_b1_03333_000000091_0001_1_17_H_._HHH_b2_00363_0001_0000100021_0000001_0 (protein)
chain: SSSSDLYEEVKEVIERAVELLREGNPEEAHRLLEELEEKLEELGNFAALFSVRHLARVVGSSSSS
B12: il10ra_site1_sap_16_mot_HHH_b1_04771_000000013_0001_40_56_H_._HHH_b2_05569_0001_0000300029_0000001_0_0001 (protein)
chain: SSSSDEEEEELRELVEEVEELIKRNDEERALRVAMKALQLAFQASDPEVLKALWELNKKISSSSS
B13: il10ra_site1_sap_17_mot_HHH_b2_07579_000000275_0001_1_19_H_._HHH_b1_07926_0001_0000100009_0000002_0_0001 (protein)
chain: SSSSDEEEVKELLEEAEKAREEGDPELVLRLLMEALRIAIQANNPELLRAIWRVLHELASSSSSS
B14: il10ra_site1_normal_mot_HHH_b1_06994_000000193_0001_40_55_H_._HHH_b2_04520_0001_0000200019_0000001_0 (protein)
chain: SSSSTLEELLRALLRLIEQAIKYGDEKSARRLLEAARRVAEILGDEEVEERLEELKKELESSSSS
B15: il10ra_site1_normal_mot_8756ee2cf497b5429c717dfc0c0bcfd6_0001_000000186_0001_1_13_H_._HHH_b1_04220_af2_0001_0000100005_0000001_1_af2pred_0001 (protein)
chain: SSSSSERAREIFELLRRIAELLHEGDDEEARELLEEARRLAEENNNAAAEAVIEFLEKRVESSSS
B16: il10ra_site1_normal_mot_HHH_b2_06090_af2_000000001_0001_1_19_H_._HHH_b1_07022_0001_0000500035_0000001_0 (protein)
chain: SSSSSQEVAELIIEAFRLLLRGDEEEVERLLEELKELAEELNDPALRRLVEILEEAIKAASSSSS
B17: il10ra_site1_sap_16_mot_HHH_b1_05860_000000142_0001_1_19_H_._HHH_b1_00472_af2_0001_0000400017_0000001_0_0001 (protein)
chain: SSSSSTAAHEIYELLKEAAELLADGNPEEAEKVLREAEELAEERGSQVMRFNIEMLLRQVSSSSS
B18: il10ra_site1_sap_12_mot_HHH_b1_08411_af2_000000053_0001_1_20_H_._HHH_b2_05711_0001_0000100001_0000001_0_0001 (protein)
chain: SSSSDLEEEIRELLEEIERLLEEGNHEEAMRLILRALRLIFKLGNEELLQILWELVKKLASSSSS
B19: il10ra_site1_sap_18_mot_HHH_b1_08176_000000188_0001_1_20_H_._HHH_b1_07223_af2_0001_0000200007_0000001_0_0001_af2pred_0001 (protein)
chain: SSSSDEEVREQVREIYEELERLLEEGDREKVEKLLHELVEIALKFDDREAAKAAAEITRLLSSSS
B20: il10ra_site1_sap_18_mot_HHH_b2_00092_000000181_0001_22_39_H_._HHH_b2_07320_0001_0000300035_0000001_0_0001 (protein)
chain: SSSSNQEHHELYELSRRVAELAANGNPEEAREVLEELEKLAEELNDQLMEFIVRLLQRLLHSSSS
B21: il10ra_site1_sap_21_mot_HHH_b2_00076_000000055_0001_40_55_H_._9021b0b5b017d02e5ebf3567f867700e_0001_1_0001_0000300015_0000001_0_0001_af2pred_0001 (protein)
chain: SSSSSEEEVERLLEEAKELLERGNPTEAVKALRRVVKLAAELQNPELLKLVRELSRLIVELSSSS
B22: il10ra_site1_sap_12_mot_HHH_b2_07442_000000239_0001_40_54_H_._HHH_b1_00744_0001_0000200013_0000001_0_0001 (protein)
chain: SSSSNEEYKKVKEAIKRASELWEEGNPEEAERLLEEILKEAEERGDWSLAWALRRALELLKSSSS
B23: il10ra_site1_sap_12_mot_HHH_b2_00943_af2_000000149_0001_1_17_H_._HHH_b1_02919_0001_0000100002_0000001_0_0001_af2pred_0001 (protein)
chain: GPEELEEEVERLLREGNLEEALELLARYAARTQDPEVAHRVIEAYAALSQGNPEEAKKLLEEAVK
B24: il10ra_site1_sap_24_mot_HHH_b1_06816_000000239_0001_1_19_H_._HHH_b2_01980_0001_0000400039_0000002_0_0001 (protein)
chain: SSSSSEERREIYELSRELAEAASDGDKERVEELYEEIRELIEEAGSRMLRFVLEHIYRIAKSSSS

These binders were tested against il10ra, Q13651 (assay: yeast display titration).
For B1, the “apparent Kd” value was “inactive: no binding seen”. For B2, the “apparent Kd” value was “inactive: no binding seen”. B3 was tested, and the “apparent Kd” value was “inactive: no binding seen”. B4 was tested, and the “apparent Kd” value was “inactive: no binding seen”. For B5, the “apparent Kd” value was “inactive: no binding seen”. In the case of B6, the “apparent Kd” value is reported as “inactive: no binding seen”. With B7 the “apparent Kd” value was “inactive: no binding seen”. In the case of B8, the “apparent Kd” value is reported as “inactive: no binding seen”. For B9, the apparent Kd was inactive: > 1.07 µM. In the case of B10, the “apparent Kd” value is reported as “inactive: no binding seen”. With B11 the “apparent Kd” value was “inactive: no binding seen”. B12 was tested, and the “apparent Kd” value was “inactive: no binding seen”. With B13 the “apparent Kd” value was “inactive: no binding seen”. For B14, the “apparent Kd” value was “inactive: no binding seen”. B15 was tested, and the “apparent Kd” value was “inactive: no binding seen”. B16 was tested, and the “apparent Kd” value was “inactive: no binding seen”. In the case of B17, the “apparent Kd” value is reported as “inactive: no binding seen”. B18 was tested, and the “apparent Kd” value was “inactive: no binding seen”. B19 was tested, and the apparent Kd was inactive: > 1.41 µM. B20 was tested, and the “apparent Kd” value was “inactive: no binding seen”. B21 was tested, and the “apparent Kd” value was “inactive: no binding seen”. With B22 the “apparent Kd” value was “inactive: no binding seen”. In the case of B23, the “apparent Kd” value is reported as “inactive: no binding seen”. With B24 the “apparent Kd” value was “inactive: no binding seen”.

Reference: publication PMC10163288
